PubChem BioAssay AID1259254, NCATS – 2017

- Test: 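Genome-wide screen for genes that prevent DNA re-replication in cancer cells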 (primary screen)
- Cells: human HCT116 colorectal cancer cells
- Reagents: single siRNA against human genes
- Time to read-out: 3 days
- Read-out: 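Imaged Hoechst DNA stain sorts each cell into a cycle phase by DNA amount; per plate, G2 fraction set to 0% for non-targeting and 100% for GMNN siRNA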
- Scale: G2 robust z-score and G2 cells, % of GMNN control: higher = more G2 cells, more excess DNA replication
- Active means: 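Active siRNAs have a G2 robust z of 5 or more median absolute deviations over the median, which in these data means about 38% or higher of GMNN control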
The deposit covers about 59,000 reagents; below is a part drawn at random. In the full data, about 1,550 (2.6%) were called active. 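G2 share is only a proxy for re-replication; each gene was hit by three separate siRNAs, and active genes were retested.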 Reagents against one gene are numbered here. Further read-outs or replicates are left out here. Not given: the amount of reagent.

{"gene knocked down": "EFCAB8 (EF-hand calcium binding domain 8)", "reagent no.": 1, "G2 robust z-score": 1.94, "G2 cells, % of GMNN control": 16.6, "call": "inactive"}
{"gene knocked down": "EFCAB8 (EF-hand calcium binding domain 8)", "reagent no.": 2, "G2 robust z-score": -0.589, "G2 cells, % of GMNN control": -1.18, "call": "inactive"}
{"gene knocked down": "EFCAB8 (EF-hand calcium binding domain 8)", "reagent no.": 3, "G2 robust z-score": 1.52, "G2 cells, % of GMNN control": 13.7, "call": "inactive"}
{"gene knocked down": "ORAI2 (ORAI calcium release-activated calcium modulator 2)", "reagent no.": 1, "G2 robust z-score": -1.31, "G2 cells, % of GMNN control": -6.22, "call": "inactive"}
{"gene knocked down": "ORAI2 (ORAI calcium release-activated calcium modulator 2)", "reagent no.": 2, "G2 robust z-score": 0.152, "G2 cells, % of GMNN control": 4.03, "call": "inactive"}
{"gene knocked down": "ORAI2 (ORAI calcium release-activated calcium modulator 2)", "reagent no.": 3, "G2 robust z-score": -0.194, "G2 cells, % of GMNN control": 1.6, "call": "inactive"}
{"gene knocked down": "PPIL4 (peptidylprolyl isomerase like 4)", "reagent no.": 1, "G2 robust z-score": 0.832, "G2 cells, % of GMNN control": 8.82, "call": "inactive"}
{"gene knocked down": "PPIL4 (peptidylprolyl isomerase like 4)", "reagent no.": 2, "G2 robust z-score": 0.599, "G2 cells, % of GMNN control": 7.18, "call": "inactive"}
{"gene knocked down": "PPIL4 (peptidylprolyl isomerase like 4)", "reagent no.": 3, "G2 robust z-score": -0.613, "G2 cells, % of GMNN control": -1.35, "call": "inactive"}

Next part; the last 2 above are carried over.
{"gene knocked down": "PPIL4 (peptidylprolyl isomerase like 4)", "reagent no.": 2, "G2 robust z-score": 0.599, "G2 cells, % of GMNN control": 7.18, "call": "inactive"}
{"gene knocked down": "PPIL4 (peptidylprolyl isomerase like 4)", "reagent no.": 3, "G2 robust z-score": -0.613, "G2 cells, % of GMNN control": -1.35, "call": "inactive"}
{"gene knocked down": "ANTXR1 (ANTXR cell adhesion molecule 1)", "reagent no.": 1, "G2 robust z-score": -0.45, "G2 cells, % of GMNN control": -0.198, "call": "inactive"}
{"gene knocked down": "ANTXR1 (ANTXR cell adhesion molecule 1)", "reagent no.": 2, "G2 robust z-score": -0.204, "G2 cells, % of GMNN control": 1.53, "call": "inactive"}
{"gene knocked down": "ANTXR1 (ANTXR cell adhesion molecule 1)", "reagent no.": 3, "G2 robust z-score": -1.01, "G2 cells, % of GMNN control": -4.15, "call": "inactive"}
{"gene knocked down": "PNO1 (partner of NOB1 homolog)", "reagent no.": 1, "G2 robust z-score": 0.172, "G2 cells, % of GMNN control": 4.18, "call": "inactive"}
{"gene knocked down": "PNO1 (partner of NOB1 homolog)", "reagent no.": 2, "G2 robust z-score": -0.121, "G2 cells, % of GMNN control": 2.11, "call": "inactive"}
{"gene knocked down": "PNO1 (partner of NOB1 homolog)", "reagent no.": 3, "G2 robust z-score": 3.16, "G2 cells, % of GMNN control": 25.2, "call": "inactive"}
{"gene knocked down": "GIGYF1 (GRB10 interacting GYF protein 1)", "reagent no.": 1, "G2 robust z-score": -0.0929, "G2 cells, % of GMNN control": 2.31, "call": "inactive"}
{"gene knocked down": "GIGYF1 (GRB10 interacting GYF protein 1)", "reagent no.": 2, "G2 robust z-score": -0.678, "G2 cells, % of GMNN control": -1.81, "call": "inactive"}
{"gene knocked down": "GIGYF1 (GRB10 interacting GYF protein 1)", "reagent no.": 3, "G2 robust z-score": 1.97, "G2 cells, % of GMNN control": 16.8, "call": "inactive"}
{"gene knocked down": "PWWP2A (PWWP domain containing 2A)", "reagent no.": 1, "G2 robust z-score": -0.76, "G2 cells, % of GMNN control": -2.38, "call": "inactive"}
{"gene knocked down": "PWWP2A (PWWP domain containing 2A)", "reagent no.": 2, "G2 robust z-score": 2.43, "G2 cells, % of GMNN control": 20, "call": "inactive"}
{"gene knocked down": "PWWP2A (PWWP domain containing 2A)", "reagent no.": 3, "G2 robust z-score": 0.246, "G2 cells, % of GMNN control": 4.7, "call": "inactive"}
{"gene knocked down": "ZBTB10 (zinc finger and BTB domain containing 10)", "reagent no.": 1, "G2 robust z-score": 1.1, "G2 cells, % of GMNN control": 10.7, "call": "inactive"}
{"gene knocked down": "ZBTB10 (zinc finger and BTB domain containing 10)", "reagent no.": 2, "G2 robust z-score": 0.511, "G2 cells, % of GMNN control": 6.56, "call": "inactive"}
{"gene knocked down": "ZBTB10 (zinc finger and BTB domain containing 10)", "reagent no.": 3, "G2 robust z-score": -0.149, "G2 cells, % of GMNN control": 1.92, "call": "inactive"}
